The source of these data is patent US12102644B2, “Compounds and methods of promoting myelination” (Case Western Reserve University, priority 2019, dated 2024).

Protein sequences, listed by entry. Tags and fused reporters are not part of them.
UniProt P08912, whole entry: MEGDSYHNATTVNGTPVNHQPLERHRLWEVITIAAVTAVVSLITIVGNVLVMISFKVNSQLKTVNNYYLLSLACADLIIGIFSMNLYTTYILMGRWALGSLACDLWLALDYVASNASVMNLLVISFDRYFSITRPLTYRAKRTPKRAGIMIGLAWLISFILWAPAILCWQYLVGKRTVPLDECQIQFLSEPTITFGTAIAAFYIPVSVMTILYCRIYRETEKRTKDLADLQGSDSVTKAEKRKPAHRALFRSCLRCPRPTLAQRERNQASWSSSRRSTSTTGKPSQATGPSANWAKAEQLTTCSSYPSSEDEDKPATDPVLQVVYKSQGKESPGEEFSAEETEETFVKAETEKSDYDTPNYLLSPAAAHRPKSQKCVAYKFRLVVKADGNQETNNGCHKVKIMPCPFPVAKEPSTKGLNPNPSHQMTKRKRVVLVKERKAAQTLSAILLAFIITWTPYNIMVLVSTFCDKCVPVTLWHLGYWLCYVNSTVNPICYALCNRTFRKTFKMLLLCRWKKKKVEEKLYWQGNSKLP

In one assay the target is muscarinic receptor M5 (Homo sapiens, UniProt P08912). The conditions noted are these: 2 μM.
Assay [1] relates to sterol levels in OPCs (cholesterol biosynthesis pathway). In words: GC/MS-based sterol profiling in OPCs. In kind it is cell-based, mouse. The conditions noted are these: 24 h treatment.
The next assay has as its target T1, EBP (Mus musculus, UniProt P70245).
T1 construct: active EBP was obtained from mouse microsomes; from tissue
T1 sequence (P70245 1-230): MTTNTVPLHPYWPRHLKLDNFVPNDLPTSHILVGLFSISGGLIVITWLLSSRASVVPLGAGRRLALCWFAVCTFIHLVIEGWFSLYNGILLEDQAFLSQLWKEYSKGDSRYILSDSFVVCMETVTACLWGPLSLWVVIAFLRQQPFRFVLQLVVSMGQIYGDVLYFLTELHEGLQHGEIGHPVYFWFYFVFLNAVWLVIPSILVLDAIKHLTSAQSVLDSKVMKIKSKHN
Briefly: EBP enzymatic assay (GC/MS). Type of assay: biochemical. Conditions: small molecules 10 μM, zymostenol 25 μM, 2 h.

For `CN1CCC[C@@H]1CCO[C@](C)(c1ccccc1)c1ccc(Cl)cc1` [clemastine, Clemastine], the “inhibition of muscarinic receptor M5 isoform” value on muscarinic receptor M5 was “near-complete inhibition”. In assay [1], the “accumulation of sterol intermediates in OPCs (enzyme inhibition in OPCs, e.g. EBP)” value was “induced accumulation of zymostenol and zymosterol and decreased basal sterol levels”. Further, at EBP, the “inhibition of EBP enzymatic activity” value is “clear inhibition”.
